# In the supplement of paper PMC5662767:
# Structures can show the parent of a compound that is named as a salt. This is one part of the list. Part of the spread comes from offsets between plates or batches.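 A clonal Drosophila S2 line expresses Smoothened bearing circularly permuted GFP in its cytoplasmic tail; Hh-driven phosphorylation opens an inhibitory loop, making it fluoresce. Flow cytometry measured per-cell fluorescence, normalized to Hh-stimulated untreated cells. Hits were inhibitor groups with shared pathway targets that consistently shifted fluorescence, not individual compounds.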
# System: Drosophila S2 cl14 SmoIP sensor cells
# Test: normalized SmoIP GFP fluorescence (untreated unstimulated = 0%, untreated Hh-stimulated = 100%); higher = more Smo activation sensor fluorescence
# Conditions: stimulation: Hh conditioned medium (+Hh); compound concentration: 15 uM; 24 h
row,Compound,normalized SmoIP GFP fluorescence [%]
1,COC(=O)[C@]12CCC(C)(C)C[C@H]1[C@H]1C(=O)C=C3[C@@]4(C)C=C(C#N)C(=O)C(C)(C)[C@@H]4CC[C@@]3(C)[C@]1(C)CC2 [bardoxolone-methyl],115
2,COc1cccc(-c2cc(=O)c3ccccc3o2)c1N,177
3,O=C1NC(=O)/C(=C/c2ccc3c(c2)OC(F)(F)O3)S1,164
4,CN(C)CCC[C@@]1(c2ccc(F)cc2)OCc2cc(C#N)ccc21 [escitalopram-oxalate],131
5,COc1ccc2[nH]c([S+]([O-])Cc3ncc(C)c(OC)c3C)nc2c1 (stereo unspecified) [Omeprazole],134
6,C[C@@H](NCCc1ccc(O)cc1)[C@@H](O)c1ccc(O)cc1 [Ritodrine-hydrochloride-Yutopar],158
7,N#CC1(c2ccc(NC(=O)c3cccnc3NCc3ccncc3)cc2)CCCC1 [Apatinib-YN968D1],58.8
8,NC(=O)C(c1ccccc1)(c1ccccc1)[C@@H]1CCN(CCc2ccc3c(c2)CCO3)C1 [darifenacin-hydrobromide],154
9,Cc1cc(Cn2cnc3c2CC(C(=O)O)N(C(=O)C(c2ccccc2)c2ccccc2)C3)ccc1N(C)C (stereo unspecified),112
10,CC(C)NCC(O)COc1cccc2ccccc12 (stereo unspecified) [propranolol-hcl],125
11,CC(C)[C@H](O)C(=O)N[C@@H](C)C(=O)N[C@@H]1C(=O)N(C)CCc2ccccc21,131
12,Cc1cccc(-c2[nH]c(C(C)(C)C)nc2-c2ccc3c(c2)OCO3)n1,136
13,CCCCCCCCCCCC1=C(O)C(=O)C=C(O)C1=O [embelin],154
14,COC(=O)C1=C(C)NC(C)=C(C(=O)OC2CCCN(Cc3ccccc3)C2)C1c1cccc([N+](=O)[O-])c1 (stereo unspecified) [benidipine-hydrochloride],146
15,O=C(Nc1cccc2cccnc12)c1ccc(N2C(=O)[C@@H]3[C@H](C2=O)[C@@H]2C=C[C@H]3C2)cc1 [iwr-1-endo],114
16,COc1ccc(S(=O)(=O)N(C(C)=O)c2ccccc2/C=C/c2cc[n+]([O-])cc2)cc1,130
17,C[C@H]1[C@H](C)CC[C@]2(C(=O)O)CC[C@]3(C)C(=CC[C@@H]4[C@@]5(C)C[C@@H](O)[C@H](O)[C@@](C)(CO)[C@@H]5CC[C@]43C)[C@H]12 [Asiatic-acid],137
18,COC(=O)[C@H](c1ccccc1Cl)N1CCc2sccc2C1 [Clopidogrel-bisulfate],168

# Sorted by SMILES length (rising): some entries from above
row,Compound,normalized SmoIP GFP fluorescence [%]
3,O=C1NC(=O)/C(=C/c2ccc3c(c2)OC(F)(F)O3)S1,164
6,C[C@@H](NCCc1ccc(O)cc1)[C@@H](O)c1ccc(O)cc1 [Ritodrine-hydrochloride-Yutopar],158
1,COC(=O)[C@]12CCC(C)(C)C[C@H]1[C@H]1C(=O)C=C3[C@@]4(C)C=C(C#N)C(=O)C(C)(C)[C@@H]4CC[C@@]3(C)[C@]1(C)CC2 [bardoxolone-methyl],115

# Following part

row,Compound,normalized SmoIP GFP fluorescence [%]
1,CC#CCn1c(N2CCC[C@@H](N)C2)nc2c1c(=O)n(Cc1nc(C)c3ccccc3n1)c(=O)n2C [linagliptin-bi-1356],125
2,CC(C)C[C@H](NC(=O)[C@@H](NC(=O)c1cccc(-c2ccccc2)n1)[C@@H](C)O)B(O)O,108
3,CCC(=O)N1CCN(c2ccc(-n3c(=O)ccc4cnc5ccc(-c6cnc7ccccc7c6)cc5c43)cc2C(F)(F)F)CC1 [torin-1],78.8
4,NCCc1c[nH]cn1 [histamine-2hcl],114
5,COc1cc2nccc(Oc3ccc(NC(=O)NC4CC4)c(Cl)c3)c2cc1C(N)=O,232
6,NC(=O)c1cn(Cc2c(F)cccc2F)nn1 [Rufinamide],143
7,Cc1ccc(N(CC2=NCCN2)c2cccc(O)c2)cc1 [phentolamine-mesilate],128
8,CCN(c1cc(-c2ccc(CN3CCOCC3)cc2)cc(C(=O)NCc2c(C)cc(C)[nH]c2=O)c1C)C1CCOCC1,137
9,COc1ccc2cccc(CCNC(C)=O)c2c1 [Agomelatine],131
10,Cc1cccc(Nc2ccccc2C(=O)O)c1C [mefenamic-acid],117
11,Cn1ncnc1[C@H]1c2n[nH]c(=O)c3cc(F)cc(c23)N[C@@H]1c1ccc(F)cc1,106
12,CN1CCN(c2cccc(Nc3nc4c(-c5ccc(S(C)(=O)=O)cc5)cccn4n3)c2)CC1,71.3
13,c1ccc(CC2=NCCN2)cc1 [tolazoline-hcl],109
14,COc1cc2nccc(Oc3ccc(NC(=O)Nc4cc(C)on4)c(Cl)c3)c2cc1OC,114
15,O=C(CCCCCCNC(=O)c1cnc(N(c2ccccc2)c2ccccc2)nc1)NO [rocilinostat-acy-1215],181
16,O=C1NC(=O)/C(=C/c2cccc(C(F)(F)F)c2)S1,187
17,CN(C)Cc1cccc(N/C(=C2\C(=O)Nc3cc(C(N)=O)ccc32)c2ccccc2)c1,132
18,CC(C)(C)OC(=O)N[C@H]1CCCCC/C=C\[C@@H]2C[C@@]2(C(=O)NS(=O)(=O)C2CC2)NC(=O)[C@@H]2C[C@@H](OC(=O)N3Cc4cccc(F)c4C3)CN2C1=O [Danoprevir],126
